This is one part of the list. The calls rarely recur for the same compound in another form.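 Kinases, fused to nanoluciferase, were expressed in K562 cells; luminescence was measured every 4 h from 2 to 18 h as percent of control (DMSO = 100%, positive control = 0%). A time point is decreased if signal falls significantly (2 sigma). Hits were called by the authors by a rule that is not shown; the count of time points alone does not decide it.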
Legend:
Assay in all cases: kinase-Nluc reporter destabilization hit call (1 = scored as downregulated) (binary); higher = compound decreases kinase abundance
Settings in all cases: K562; 2-18 h
PDPK1 = PDPK1 (UniProt O15530)
PIK4CA = PIK4CA (UniProt P42356)
PIK4CB = PIK4CB (UniProt Q9UBF8)
PLK1 = PLK1 (UniProt P53350)
PRKAA1 = PRKAA1 (UniProt Q13131)
PRKCA = PRKCA (UniProt P17252)
PTK2 = PTK2 (UniProt Q05397)
PTK2B = PTK2B (UniProt Q14289)
RAF1 = RAF1 (UniProt P04049)
[1] = target: RAF1_S257L (clone: RAF1_mut) (UniProt P04049)
RET = RET (UniProt P07949)
[2] = target: RET_M918T (clone: RET_mut) (UniProt P07949)
RIOK1 = RIOK1 (UniProt Q9BRS2)
RIPK1 = RIPK1 (UniProt Q13546)
RIPK2 = RIPK2 (UniProt O43353)
ROR2 = ROR2 (UniProt Q01974)
RPS6KA1 = RPS6KA1 (UniProt Q15418)
SPHK1 = SPHK1 (UniProt Q9NYA1)
SRC = SRC (UniProt P12931)
STK24 = STK24 (UniProt Q9Y6E0)

The chains behind the UniProt entries cited, without tags or fusion partners. Where a name states a change or a piece, a line headed by the entry shows the natural chain unless it says otherwise.
UniProt P42356, whole entry, looked up: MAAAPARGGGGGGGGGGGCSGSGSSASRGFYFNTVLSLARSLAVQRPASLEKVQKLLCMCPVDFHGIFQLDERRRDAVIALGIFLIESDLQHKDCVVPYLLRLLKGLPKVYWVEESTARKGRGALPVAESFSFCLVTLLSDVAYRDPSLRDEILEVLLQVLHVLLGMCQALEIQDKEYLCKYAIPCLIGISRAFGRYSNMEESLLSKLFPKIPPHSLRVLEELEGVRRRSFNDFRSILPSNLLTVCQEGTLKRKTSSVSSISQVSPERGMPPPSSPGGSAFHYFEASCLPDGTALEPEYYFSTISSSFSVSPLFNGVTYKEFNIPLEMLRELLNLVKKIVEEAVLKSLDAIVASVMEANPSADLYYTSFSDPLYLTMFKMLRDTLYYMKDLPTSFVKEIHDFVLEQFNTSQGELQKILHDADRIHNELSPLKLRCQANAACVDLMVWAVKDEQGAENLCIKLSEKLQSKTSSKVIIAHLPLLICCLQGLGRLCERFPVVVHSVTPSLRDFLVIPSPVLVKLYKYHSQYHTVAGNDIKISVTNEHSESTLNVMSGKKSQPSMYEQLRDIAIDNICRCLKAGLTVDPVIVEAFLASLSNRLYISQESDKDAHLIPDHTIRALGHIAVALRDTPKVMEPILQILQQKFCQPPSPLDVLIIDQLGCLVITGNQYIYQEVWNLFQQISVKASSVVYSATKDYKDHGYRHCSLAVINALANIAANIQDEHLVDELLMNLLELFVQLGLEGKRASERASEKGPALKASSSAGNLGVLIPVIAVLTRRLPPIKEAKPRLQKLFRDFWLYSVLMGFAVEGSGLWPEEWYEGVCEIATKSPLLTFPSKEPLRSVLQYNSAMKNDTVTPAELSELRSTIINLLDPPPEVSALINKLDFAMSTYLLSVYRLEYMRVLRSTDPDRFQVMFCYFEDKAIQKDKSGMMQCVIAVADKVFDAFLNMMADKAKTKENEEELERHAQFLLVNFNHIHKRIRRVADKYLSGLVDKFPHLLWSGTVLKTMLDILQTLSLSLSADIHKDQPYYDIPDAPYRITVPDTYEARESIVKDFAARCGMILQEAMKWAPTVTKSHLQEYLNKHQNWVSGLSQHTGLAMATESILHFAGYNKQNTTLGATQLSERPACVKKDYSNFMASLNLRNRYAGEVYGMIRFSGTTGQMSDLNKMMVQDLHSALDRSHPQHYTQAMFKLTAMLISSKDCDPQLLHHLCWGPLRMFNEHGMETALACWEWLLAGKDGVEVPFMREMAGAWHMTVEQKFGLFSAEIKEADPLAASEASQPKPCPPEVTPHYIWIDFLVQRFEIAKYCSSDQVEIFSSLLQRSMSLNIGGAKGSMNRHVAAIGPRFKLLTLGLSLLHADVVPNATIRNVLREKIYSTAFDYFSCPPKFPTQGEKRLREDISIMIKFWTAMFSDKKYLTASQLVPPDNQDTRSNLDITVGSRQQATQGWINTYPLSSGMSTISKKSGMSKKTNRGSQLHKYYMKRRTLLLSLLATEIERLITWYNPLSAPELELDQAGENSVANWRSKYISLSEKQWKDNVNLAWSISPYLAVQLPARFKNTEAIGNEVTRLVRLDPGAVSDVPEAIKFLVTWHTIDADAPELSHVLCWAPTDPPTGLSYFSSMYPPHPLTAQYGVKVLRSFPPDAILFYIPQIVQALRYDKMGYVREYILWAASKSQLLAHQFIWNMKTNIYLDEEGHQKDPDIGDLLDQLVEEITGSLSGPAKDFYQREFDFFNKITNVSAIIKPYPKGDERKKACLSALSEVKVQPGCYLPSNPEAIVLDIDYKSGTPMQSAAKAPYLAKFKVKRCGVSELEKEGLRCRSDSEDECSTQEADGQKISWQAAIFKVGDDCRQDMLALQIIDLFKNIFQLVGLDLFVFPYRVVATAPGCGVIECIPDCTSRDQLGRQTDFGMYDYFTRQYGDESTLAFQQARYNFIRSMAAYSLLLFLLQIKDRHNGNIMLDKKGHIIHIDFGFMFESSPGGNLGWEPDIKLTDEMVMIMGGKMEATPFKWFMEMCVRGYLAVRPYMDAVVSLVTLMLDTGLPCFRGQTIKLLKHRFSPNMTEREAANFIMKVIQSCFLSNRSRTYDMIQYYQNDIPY
UniProt Q9UBF8: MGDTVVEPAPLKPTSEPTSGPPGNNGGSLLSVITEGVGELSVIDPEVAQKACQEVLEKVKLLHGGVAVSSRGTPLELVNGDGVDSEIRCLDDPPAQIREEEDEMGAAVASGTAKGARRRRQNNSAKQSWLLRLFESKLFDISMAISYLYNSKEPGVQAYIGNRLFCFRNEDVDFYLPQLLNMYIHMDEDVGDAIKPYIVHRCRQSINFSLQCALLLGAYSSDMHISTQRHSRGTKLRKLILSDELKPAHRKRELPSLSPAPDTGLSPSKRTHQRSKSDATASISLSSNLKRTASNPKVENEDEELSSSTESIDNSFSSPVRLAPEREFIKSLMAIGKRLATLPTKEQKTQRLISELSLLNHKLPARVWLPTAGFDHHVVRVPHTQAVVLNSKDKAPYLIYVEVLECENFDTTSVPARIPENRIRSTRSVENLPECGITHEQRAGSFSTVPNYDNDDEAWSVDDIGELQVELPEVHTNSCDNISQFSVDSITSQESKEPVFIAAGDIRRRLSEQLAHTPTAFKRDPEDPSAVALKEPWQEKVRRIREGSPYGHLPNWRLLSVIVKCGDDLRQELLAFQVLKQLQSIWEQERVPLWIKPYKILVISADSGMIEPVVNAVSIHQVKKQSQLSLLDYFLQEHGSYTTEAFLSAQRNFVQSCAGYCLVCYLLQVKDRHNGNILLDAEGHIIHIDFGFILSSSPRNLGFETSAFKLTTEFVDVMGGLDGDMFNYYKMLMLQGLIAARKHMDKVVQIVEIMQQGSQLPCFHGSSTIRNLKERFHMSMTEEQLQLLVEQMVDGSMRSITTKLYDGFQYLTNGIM
UniProt Q05397, whole entry, looked up: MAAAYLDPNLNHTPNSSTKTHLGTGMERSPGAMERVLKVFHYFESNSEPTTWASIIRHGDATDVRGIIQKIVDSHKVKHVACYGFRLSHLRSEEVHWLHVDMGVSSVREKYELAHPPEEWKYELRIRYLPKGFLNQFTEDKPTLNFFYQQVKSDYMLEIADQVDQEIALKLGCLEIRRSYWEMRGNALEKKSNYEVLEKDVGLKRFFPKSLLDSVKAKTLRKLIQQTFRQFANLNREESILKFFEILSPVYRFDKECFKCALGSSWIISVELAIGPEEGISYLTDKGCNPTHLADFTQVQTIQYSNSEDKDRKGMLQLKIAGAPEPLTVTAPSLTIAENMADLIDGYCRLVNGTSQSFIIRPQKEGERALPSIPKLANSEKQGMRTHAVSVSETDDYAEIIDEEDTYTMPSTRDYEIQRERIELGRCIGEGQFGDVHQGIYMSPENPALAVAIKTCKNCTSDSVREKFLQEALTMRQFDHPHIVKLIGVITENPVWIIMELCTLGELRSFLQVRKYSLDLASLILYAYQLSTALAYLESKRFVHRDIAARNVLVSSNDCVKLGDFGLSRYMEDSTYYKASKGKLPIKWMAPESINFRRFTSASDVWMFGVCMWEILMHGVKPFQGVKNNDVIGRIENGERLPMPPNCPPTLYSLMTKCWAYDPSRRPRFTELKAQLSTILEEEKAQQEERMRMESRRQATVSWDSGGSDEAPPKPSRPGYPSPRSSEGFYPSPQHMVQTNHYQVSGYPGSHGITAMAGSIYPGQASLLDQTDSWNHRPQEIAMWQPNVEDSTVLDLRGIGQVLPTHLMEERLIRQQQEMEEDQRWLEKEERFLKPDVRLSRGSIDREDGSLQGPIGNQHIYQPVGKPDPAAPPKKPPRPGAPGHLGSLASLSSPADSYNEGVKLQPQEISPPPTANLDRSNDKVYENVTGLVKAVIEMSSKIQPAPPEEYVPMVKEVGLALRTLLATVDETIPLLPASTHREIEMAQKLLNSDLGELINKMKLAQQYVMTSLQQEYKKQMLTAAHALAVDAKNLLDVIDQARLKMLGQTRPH
UniProt Q14289, whole entry, looked up: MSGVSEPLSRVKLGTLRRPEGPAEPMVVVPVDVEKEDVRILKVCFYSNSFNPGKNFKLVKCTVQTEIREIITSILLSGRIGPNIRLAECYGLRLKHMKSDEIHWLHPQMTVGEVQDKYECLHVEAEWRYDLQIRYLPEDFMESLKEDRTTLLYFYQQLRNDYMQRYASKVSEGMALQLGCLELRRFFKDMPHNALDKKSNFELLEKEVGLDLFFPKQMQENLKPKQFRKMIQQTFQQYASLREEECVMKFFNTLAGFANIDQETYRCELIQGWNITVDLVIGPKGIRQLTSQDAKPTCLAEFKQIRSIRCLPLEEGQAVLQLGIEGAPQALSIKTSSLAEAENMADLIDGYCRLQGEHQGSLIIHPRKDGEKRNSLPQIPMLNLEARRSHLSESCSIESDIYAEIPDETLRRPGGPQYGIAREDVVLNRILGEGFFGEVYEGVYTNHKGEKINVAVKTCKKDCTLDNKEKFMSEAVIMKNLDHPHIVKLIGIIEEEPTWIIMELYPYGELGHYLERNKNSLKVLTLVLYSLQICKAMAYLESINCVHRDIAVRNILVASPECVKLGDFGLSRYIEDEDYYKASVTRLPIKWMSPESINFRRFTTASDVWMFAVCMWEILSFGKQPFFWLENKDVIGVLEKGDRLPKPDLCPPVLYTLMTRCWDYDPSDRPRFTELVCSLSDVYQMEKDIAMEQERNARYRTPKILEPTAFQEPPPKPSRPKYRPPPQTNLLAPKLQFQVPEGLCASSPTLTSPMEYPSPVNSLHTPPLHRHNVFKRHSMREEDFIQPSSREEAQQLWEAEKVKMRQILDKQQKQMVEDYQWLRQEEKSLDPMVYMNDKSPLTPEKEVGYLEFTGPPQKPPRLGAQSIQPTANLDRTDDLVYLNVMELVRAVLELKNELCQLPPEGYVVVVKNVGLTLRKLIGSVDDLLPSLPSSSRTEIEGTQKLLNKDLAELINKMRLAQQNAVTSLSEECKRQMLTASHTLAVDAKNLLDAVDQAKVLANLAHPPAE
UniProt P07949, whole entry, looked up: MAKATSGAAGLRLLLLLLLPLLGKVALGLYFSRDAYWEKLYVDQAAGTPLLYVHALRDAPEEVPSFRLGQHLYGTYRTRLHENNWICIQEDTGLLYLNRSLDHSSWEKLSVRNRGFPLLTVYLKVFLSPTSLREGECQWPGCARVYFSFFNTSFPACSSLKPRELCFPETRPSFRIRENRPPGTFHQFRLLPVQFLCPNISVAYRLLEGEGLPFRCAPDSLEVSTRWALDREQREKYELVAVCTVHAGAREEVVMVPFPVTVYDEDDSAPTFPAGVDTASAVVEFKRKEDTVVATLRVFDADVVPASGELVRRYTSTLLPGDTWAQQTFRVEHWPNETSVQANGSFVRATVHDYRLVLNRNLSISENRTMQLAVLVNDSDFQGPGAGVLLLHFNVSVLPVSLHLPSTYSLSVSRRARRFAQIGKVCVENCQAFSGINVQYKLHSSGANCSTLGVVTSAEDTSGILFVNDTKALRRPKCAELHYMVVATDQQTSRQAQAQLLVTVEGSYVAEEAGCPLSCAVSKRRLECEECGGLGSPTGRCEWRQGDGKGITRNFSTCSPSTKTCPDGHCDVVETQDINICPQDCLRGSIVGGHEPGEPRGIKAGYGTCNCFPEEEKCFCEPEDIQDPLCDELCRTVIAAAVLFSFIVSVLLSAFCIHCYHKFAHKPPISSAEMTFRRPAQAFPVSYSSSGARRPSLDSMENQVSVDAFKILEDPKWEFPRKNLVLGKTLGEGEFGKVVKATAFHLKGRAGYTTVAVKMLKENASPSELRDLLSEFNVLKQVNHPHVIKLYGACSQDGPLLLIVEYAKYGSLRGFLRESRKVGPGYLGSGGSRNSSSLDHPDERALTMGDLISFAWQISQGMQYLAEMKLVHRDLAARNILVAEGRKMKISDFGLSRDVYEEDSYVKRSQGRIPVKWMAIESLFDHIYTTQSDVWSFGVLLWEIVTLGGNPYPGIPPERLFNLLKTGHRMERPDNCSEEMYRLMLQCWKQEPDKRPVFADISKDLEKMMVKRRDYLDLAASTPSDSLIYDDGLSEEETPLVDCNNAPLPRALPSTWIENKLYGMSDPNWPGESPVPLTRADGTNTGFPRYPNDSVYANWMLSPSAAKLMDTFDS
UniProt Q9NYA1, whole entry: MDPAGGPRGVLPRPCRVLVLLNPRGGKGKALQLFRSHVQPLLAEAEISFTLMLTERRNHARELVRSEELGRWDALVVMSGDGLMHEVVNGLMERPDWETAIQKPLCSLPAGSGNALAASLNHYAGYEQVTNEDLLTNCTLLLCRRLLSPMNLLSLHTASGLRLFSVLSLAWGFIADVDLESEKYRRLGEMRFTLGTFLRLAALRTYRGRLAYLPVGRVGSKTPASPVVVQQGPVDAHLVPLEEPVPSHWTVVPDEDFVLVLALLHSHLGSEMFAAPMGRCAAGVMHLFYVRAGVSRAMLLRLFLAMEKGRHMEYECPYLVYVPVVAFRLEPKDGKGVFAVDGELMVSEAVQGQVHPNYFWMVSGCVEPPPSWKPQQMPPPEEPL

Measured: kinase-Nluc reporter destabilization hit call

CC1(C)CC=C(c2nc(C3CC(C)(C)OC(C)(C)C3)ccc2NC(=O)c2nc(C#N)c[nH]2)CC1 [Edicotinib] (2.5 µM)
inactive: PDPK1 = 0 | PIK4CA 0 | PIK4CB 0 | PLK1 = 0 | PRKAA1 = 0 | PRKCA 0 | PTK2 = 0 | PTK2B 0 | RAF1 = 0 | [1] 0 | RET 0 | [2] 0 | RIOK1 = 0 | RIPK1 = 0 | RIPK2 = 0 | ROR2 = 0 | RPS6KA1 = 0 | SPHK1 = 0 | SRC 0 | STK24 = 0

CN(C)Cc1ccc(-c2cnn3c(-c4cccc(NC(=O)c5cccc(C(F)(F)F)c5)c4)ccnc23)cc1 (2.5 µM)
inactive: PDPK1 = 0 | PIK4CA 0 | PIK4CB 0 | PLK1 = 0 | PRKAA1 = 0 | PRKCA 0 | PTK2 = 0 | PTK2B 0 | RAF1 = 0 | [1] 0 | RET 0 | [2] 0 | RIOK1 = 0 | RIPK1 = 0 | RIPK2 = 0 | ROR2 = 0 | RPS6KA1 = 0 | SPHK1 = 0 | SRC 0 | STK24 = 0

CC(C)n1cnc2c(NCc3cccc(C(F)(F)F)c3)ncnc21 [Longdaysin] (10 µM)
inactive: PDPK1 = 0 | PIK4CA 0 | PIK4CB 0 | PLK1 = 0 | PRKAA1 = 0 | PRKCA 0 | PTK2 = 0 | PTK2B 0 | RAF1 = 0 | [1] 0 | RET 0 | [2] 0 | RIOK1 = 0 | RIPK1 = 0 | RIPK2 = 0 | ROR2 = 0 | RPS6KA1 = 0 | SPHK1 = 0 | SRC 0 | STK24 = 0

CC(C)(C#N)c1ccc(N2C(=O)OCc3cnc4ccc(-c5cnc6ccccc6c5)cc4c32)cc1 (2.5 µM)
inactive: PDPK1 = 0 | PIK4CA 0 | PIK4CB 0 | PLK1 = 0 | PRKAA1 = 0 | PRKCA 0 | PTK2 = 0 | PTK2B 0 | RAF1 = 0 | [1] 0 | RET 0 | [2] 0 | RIOK1 = 0 | RIPK1 = 0 | RIPK2 = 0 | ROR2 = 0 | RPS6KA1 = 0 | SPHK1 = 0 | SRC 0 | STK24 = 0

3 compounds already listed, arranged by formula weight, descending:
CN(C)Cc1ccc(-c2cnn3c(-c4cccc(NC(=O)c5cccc(C(F)(F)F)c5)c4)ccnc23)cc1 (2.5 µM)
inactive: PDPK1 = 0 | PIK4CA 0 | PIK4CB 0 | PLK1 = 0 | PRKAA1 = 0 | PRKCA 0 | PTK2 = 0 | PTK2B 0 | RAF1 = 0 | [1] 0 | RET 0 | [2] 0 | RIOK1 = 0 | RIPK1 = 0 | RIPK2 = 0 | ROR2 = 0 | RPS6KA1 = 0 | SPHK1 = 0 | SRC 0 | STK24 = 0

CC(C)(C#N)c1ccc(N2C(=O)OCc3cnc4ccc(-c5cnc6ccccc6c5)cc4c32)cc1 (2.5 µM)
inactive: PDPK1 = 0 | PIK4CA 0 | PIK4CB 0 | PLK1 = 0 | PRKAA1 = 0 | PRKCA 0 | PTK2 = 0 | PTK2B 0 | RAF1 = 0 | [1] 0 | RET 0 | [2] 0 | RIOK1 = 0 | RIPK1 = 0 | RIPK2 = 0 | ROR2 = 0 | RPS6KA1 = 0 | SPHK1 = 0 | SRC 0 | STK24 = 0

CC1(C)CC=C(c2nc(C3CC(C)(C)OC(C)(C)C3)ccc2NC(=O)c2nc(C#N)c[nH]2)CC1 [Edicotinib] (2.5 µM)
inactive: PDPK1 = 0 | PIK4CA 0 | PIK4CB 0 | PLK1 = 0 | PRKAA1 = 0 | PRKCA 0 | PTK2 = 0 | PTK2B 0 | RAF1 = 0 | [1] 0 | RET 0 | [2] 0 | RIOK1 = 0 | RIPK1 = 0 | RIPK2 = 0 | ROR2 = 0 | RPS6KA1 = 0 | SPHK1 = 0 | SRC 0 | STK24 = 0

The results go on:

CN(C)CCOc1ccc(-c2nc(-c3ccncc3)c(-c3ccc4c(c3)CC/C4=N\O)[nH]2)cc1 (10 µM)
inactive: PDPK1 = 0 | PIK4CA 0 | PIK4CB 0 | PLK1 = 0 | PRKAA1 = 0 | PRKCA 0 | PTK2 = 0 | PTK2B 0 | RAF1 = 0 | [1] 0 | RET 0 | [2] 0 | RIOK1 = 0 | RIPK1 = 0 | RIPK2 = 0 | ROR2 = 0 | RPS6KA1 = 0 | SPHK1 = 0 | SRC 0 | STK24 = 0

CC(C)(C)S(=O)(=O)c1cc2c(Nc3ccc4scnc4c3)ncnc2cc1OCCO (2.5 µM)
active: RIPK2 = 1
inactive: PDPK1 = 0 | PIK4CA 0 | PIK4CB 0 | PLK1 = 0 | PRKAA1 = 0 | PRKCA 0 | PTK2 = 0 | PTK2B 0 | RAF1 = 0 | [1] 0 | RET 0 | [2] 0 | RIOK1 = 0 | RIPK1 = 0 | ROR2 = 0 | RPS6KA1 = 0 | SPHK1 = 0 | SRC 0 | STK24 = 0

COc1cc(OC)c(F)c(COc2cnc(Nc3cnn(CCO)c3)nc2)c1F (2.5 µM)
inactive: PDPK1 = 0 | PIK4CA 0 | PIK4CB 0 | PLK1 = 0 | PRKAA1 = 0 | PRKCA 0 | PTK2 = 0 | PTK2B 0 | RAF1 = 0 | [1] 0 | RET 0 | [2] 0 | RIOK1 = 0 | RIPK1 = 0 | RIPK2 = 0 | ROR2 = 0 | RPS6KA1 = 0 | SPHK1 = 0 | SRC 0 | STK24 = 0

NC(=O)c1ccc2nc(-c3ccc(Oc4ccc(Cl)cc4)cc3)[nH]c2c1 (10 µM)
inactive: PDPK1 = 0 | PIK4CA 0 | PIK4CB 0 | PLK1 = 0 | PRKAA1 = 0 | PRKCA 0 | PTK2 = 0 | PTK2B 0 | RAF1 = 0 | [1] 0 | RET 0 | [2] 0 | RIOK1 = 0 | RIPK1 = 0 | RIPK2 = 0 | ROR2 = 0 | RPS6KA1 = 0 | SPHK1 = 0 | SRC 0 | STK24 = 0

Cc1cccc(Cn2nc(C3CC3)c3c(NC(=O)c4cnc5cc(OCCN6CCN(C)CC6)ccn45)cccc32)n1 (10 µM)
inactive: PDPK1 = 0 | PIK4CA 0 | PIK4CB 0 | PLK1 = 0 | PRKAA1 = 0 | PRKCA 0 | PTK2 = 0 | PTK2B 0 | RAF1 = 0 | [1] 0 | RET 0 | [2] 0 | RIOK1 = 0 | RIPK1 = 0 | RIPK2 = 0 | ROR2 = 0 | RPS6KA1 = 0 | SPHK1 = 0 | SRC 0 | STK24 = 0

CC(=O)N1CCN(c2ccc(OCC3COC(Cn4ccnc4)(c4ccc(Cl)cc4Cl)O3)cc2)CC1 (stereo not given) [Ketoconazole] (2.5 µM)
inactive: PDPK1 = 0 | PIK4CA 0 | PIK4CB 0 | PLK1 = 0 | PRKAA1 = 0 | PRKCA 0 | PTK2 = 0 | PTK2B 0 | RAF1 = 0 | [1] 0 | RET 0 | [2] 0 | RIOK1 = 0 | RIPK1 = 0 | RIPK2 = 0 | ROR2 = 0 | RPS6KA1 = 0 | SPHK1 = 0 | SRC 0 | STK24 = 0

Oc1ccc(-c2nc(-c3ccc(F)cc3)c(-c3ccncc3)[nH]2)cc1 (2.5 µM)
inactive: PDPK1 = 0 | PIK4CA 0 | PIK4CB 0 | PLK1 = 0 | PRKAA1 = 0 | PRKCA 0 | PTK2 = 0 | PTK2B 0 | RAF1 = 0 | [1] 0 | RET 0 | [2] 0 | RIOK1 = 0 | RIPK1 = 0 | RIPK2 = 0 | ROR2 = 0 | RPS6KA1 = 0 | SPHK1 = 0 | SRC 0 | STK24 = 0

CN1CCN(c2ccc(C(=O)Nc3n[nH]c4ccc(Cc5cc(F)cc(F)c5)cc34)c(NC3CCOCC3)c2)CC1 [Entrectinib] (2.5 µM)
inactive: PDPK1 = 0 | PIK4CA 0 | PIK4CB 0 | PLK1 = 0 | PRKAA1 = 0 | PRKCA 0 | PTK2 = 0 | PTK2B 0 | RAF1 = 0 | [1] 0 | RET 0 | [2] 0 | RIOK1 = 0 | RIPK1 = 0 | RIPK2 = 0 | ROR2 = 0 | RPS6KA1 = 0 | SPHK1 = 0 | SRC 0 | STK24 = 0

COc1cc2ncnc(Nc3cccc(O)c3)c2cc1OC (10 µM)
inactive: PDPK1 = 0 | PIK4CA 0 | PIK4CB 0 | PLK1 = 0 | PRKAA1 = 0 | PRKCA 0 | PTK2 = 0 | PTK2B 0 | RAF1 = 0 | RET 0 | [2] 0 | RIOK1 = 0 | RIPK1 = 0 | ROR2 = 0 | RPS6KA1 = 0 | SPHK1 = 0 | SRC 0 | STK24 = 0
active: [1] 1 | RIPK2 = 1

CN1CCN(S(=O)(=O)c2ccc(-c3cnc(N)c(C(=O)Nc4cccnc4)n3)cc2)CC1 (10 µM)
inactive: PDPK1 = 0 | PIK4CA 0 | PIK4CB 0 | PLK1 = 0 | PRKAA1 = 0 | PRKCA 0 | PTK2 = 0 | PTK2B 0 | RAF1 = 0 | [1] 0 | RET 0 | [2] 0 | RIOK1 = 0 | RIPK1 = 0 | RIPK2 = 0 | ROR2 = 0 | RPS6KA1 = 0 | SPHK1 = 0 | SRC 0 | STK24 = 0

CCN(CC)CCCCNc1ncc2cc(-c3cc(OC)cc(OC)c3)c(NC(=O)NC(C)(C)C)nc2n1 (10 µM)
inactive: PDPK1 = 0 | PIK4CA 0 | PIK4CB 0 | PLK1 = 0 | PRKAA1 = 0 | PRKCA 0 | PTK2 = 0 | PTK2B 0 | RAF1 = 0 | [1] 0 | RET 0 | [2] 0 | RIOK1 = 0 | RIPK1 = 0 | RIPK2 = 0 | ROR2 = 0 | RPS6KA1 = 0 | SPHK1 = 0 | SRC 0 | STK24 = 0

CCN(CCO)CCCOc1ccc2c(Nc3cc(CC(=O)Nc4cccc(F)c4)[nH]n3)ncnc2c1 [Barasertib-HQPA] (10 µM)
inactive: PDPK1 = 0 | PIK4CA 0 | PIK4CB 0 | PLK1 = 0 | PRKAA1 = 0 | PRKCA 0 | PTK2 = 0 | PTK2B 0 | RAF1 = 0 | [1] 0 | RET 0 | [2] 0 | RIOK1 = 0 | RIPK1 = 0 | RIPK2 = 0 | ROR2 = 0 | RPS6KA1 = 0 | SPHK1 = 0 | SRC 0 | STK24 = 0

CN1CCN(C2CCN(C(=O)Nc3cc(Oc4ccc(NC(=O)C5(C(=O)Nc6ccc(F)cc6)CC5)c(F)c4)ccn3)CC2)CC1 [Golvatinib] (2.5 µM)
inactive: PDPK1 = 0 | PIK4CA 0 | PIK4CB 0 | PLK1 = 0 | PRKAA1 = 0 | PRKCA 0 | PTK2 = 0 | PTK2B 0 | RAF1 = 0 | [1] 0 | RET 0 | [2] 0 | RIOK1 = 0 | RIPK1 = 0 | RIPK2 = 0 | ROR2 = 0 | RPS6KA1 = 0 | SPHK1 = 0 | SRC 0 | STK24 = 0

Cc1c(C(=O)N2CCOc3ccc(-c4ccc(N)nc4)cc3C2)ccc(S(C)(=O)=O)c1F (10 µM)
inactive: PDPK1 = 0 | PIK4CA 0 | PIK4CB 0 | PLK1 = 0 | PRKAA1 = 0 | PRKCA 0 | PTK2 = 0 | PTK2B 0 | RAF1 = 0 | [1] 0 | RET 0 | [2] 0 | RIOK1 = 0 | RIPK1 = 0 | RIPK2 = 0 | ROR2 = 0 | RPS6KA1 = 0 | SPHK1 = 0 | SRC 0 | STK24 = 0
